Experimental findings from article PMC8812845 are described below.

Sequences of proteins named here, by UniProt entry; tags and fusion partners are left off.
UniProt Q9UKA9: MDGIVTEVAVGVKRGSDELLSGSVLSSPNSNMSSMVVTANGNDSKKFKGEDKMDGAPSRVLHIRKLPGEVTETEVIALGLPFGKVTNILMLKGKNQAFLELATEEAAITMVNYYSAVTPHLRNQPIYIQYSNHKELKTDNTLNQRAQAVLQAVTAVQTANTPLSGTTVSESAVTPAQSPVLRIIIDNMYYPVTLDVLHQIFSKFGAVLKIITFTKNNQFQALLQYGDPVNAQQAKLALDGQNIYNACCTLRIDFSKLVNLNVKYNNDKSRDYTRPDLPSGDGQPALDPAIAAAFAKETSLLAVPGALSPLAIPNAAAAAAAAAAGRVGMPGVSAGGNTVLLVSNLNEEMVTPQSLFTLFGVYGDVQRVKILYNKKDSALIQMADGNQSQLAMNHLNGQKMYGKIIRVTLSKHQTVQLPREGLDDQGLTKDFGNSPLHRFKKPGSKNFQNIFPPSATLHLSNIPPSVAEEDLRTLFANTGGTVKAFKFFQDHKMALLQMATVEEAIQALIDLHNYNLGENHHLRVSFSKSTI
UniProt P62256: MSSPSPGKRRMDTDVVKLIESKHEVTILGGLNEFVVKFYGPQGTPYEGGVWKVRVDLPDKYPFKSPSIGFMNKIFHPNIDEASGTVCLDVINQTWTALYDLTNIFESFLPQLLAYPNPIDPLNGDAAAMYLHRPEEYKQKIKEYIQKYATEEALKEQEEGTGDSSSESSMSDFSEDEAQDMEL
UniProt Q9NRF9: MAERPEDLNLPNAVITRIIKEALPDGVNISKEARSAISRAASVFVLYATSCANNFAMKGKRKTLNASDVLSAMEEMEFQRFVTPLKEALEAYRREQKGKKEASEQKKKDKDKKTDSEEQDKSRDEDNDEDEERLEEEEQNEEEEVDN
UniProt P43694: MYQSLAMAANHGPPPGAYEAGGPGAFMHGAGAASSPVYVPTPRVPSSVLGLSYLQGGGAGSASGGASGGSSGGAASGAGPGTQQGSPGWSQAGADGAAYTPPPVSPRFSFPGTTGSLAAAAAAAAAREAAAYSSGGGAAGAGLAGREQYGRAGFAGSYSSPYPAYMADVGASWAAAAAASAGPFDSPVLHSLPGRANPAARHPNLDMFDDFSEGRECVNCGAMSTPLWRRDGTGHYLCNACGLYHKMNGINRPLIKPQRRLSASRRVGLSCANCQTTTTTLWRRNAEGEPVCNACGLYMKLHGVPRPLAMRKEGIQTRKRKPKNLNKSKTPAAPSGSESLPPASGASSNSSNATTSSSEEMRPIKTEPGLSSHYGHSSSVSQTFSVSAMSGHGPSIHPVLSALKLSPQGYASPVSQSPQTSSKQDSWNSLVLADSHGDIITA
UniProt P46013: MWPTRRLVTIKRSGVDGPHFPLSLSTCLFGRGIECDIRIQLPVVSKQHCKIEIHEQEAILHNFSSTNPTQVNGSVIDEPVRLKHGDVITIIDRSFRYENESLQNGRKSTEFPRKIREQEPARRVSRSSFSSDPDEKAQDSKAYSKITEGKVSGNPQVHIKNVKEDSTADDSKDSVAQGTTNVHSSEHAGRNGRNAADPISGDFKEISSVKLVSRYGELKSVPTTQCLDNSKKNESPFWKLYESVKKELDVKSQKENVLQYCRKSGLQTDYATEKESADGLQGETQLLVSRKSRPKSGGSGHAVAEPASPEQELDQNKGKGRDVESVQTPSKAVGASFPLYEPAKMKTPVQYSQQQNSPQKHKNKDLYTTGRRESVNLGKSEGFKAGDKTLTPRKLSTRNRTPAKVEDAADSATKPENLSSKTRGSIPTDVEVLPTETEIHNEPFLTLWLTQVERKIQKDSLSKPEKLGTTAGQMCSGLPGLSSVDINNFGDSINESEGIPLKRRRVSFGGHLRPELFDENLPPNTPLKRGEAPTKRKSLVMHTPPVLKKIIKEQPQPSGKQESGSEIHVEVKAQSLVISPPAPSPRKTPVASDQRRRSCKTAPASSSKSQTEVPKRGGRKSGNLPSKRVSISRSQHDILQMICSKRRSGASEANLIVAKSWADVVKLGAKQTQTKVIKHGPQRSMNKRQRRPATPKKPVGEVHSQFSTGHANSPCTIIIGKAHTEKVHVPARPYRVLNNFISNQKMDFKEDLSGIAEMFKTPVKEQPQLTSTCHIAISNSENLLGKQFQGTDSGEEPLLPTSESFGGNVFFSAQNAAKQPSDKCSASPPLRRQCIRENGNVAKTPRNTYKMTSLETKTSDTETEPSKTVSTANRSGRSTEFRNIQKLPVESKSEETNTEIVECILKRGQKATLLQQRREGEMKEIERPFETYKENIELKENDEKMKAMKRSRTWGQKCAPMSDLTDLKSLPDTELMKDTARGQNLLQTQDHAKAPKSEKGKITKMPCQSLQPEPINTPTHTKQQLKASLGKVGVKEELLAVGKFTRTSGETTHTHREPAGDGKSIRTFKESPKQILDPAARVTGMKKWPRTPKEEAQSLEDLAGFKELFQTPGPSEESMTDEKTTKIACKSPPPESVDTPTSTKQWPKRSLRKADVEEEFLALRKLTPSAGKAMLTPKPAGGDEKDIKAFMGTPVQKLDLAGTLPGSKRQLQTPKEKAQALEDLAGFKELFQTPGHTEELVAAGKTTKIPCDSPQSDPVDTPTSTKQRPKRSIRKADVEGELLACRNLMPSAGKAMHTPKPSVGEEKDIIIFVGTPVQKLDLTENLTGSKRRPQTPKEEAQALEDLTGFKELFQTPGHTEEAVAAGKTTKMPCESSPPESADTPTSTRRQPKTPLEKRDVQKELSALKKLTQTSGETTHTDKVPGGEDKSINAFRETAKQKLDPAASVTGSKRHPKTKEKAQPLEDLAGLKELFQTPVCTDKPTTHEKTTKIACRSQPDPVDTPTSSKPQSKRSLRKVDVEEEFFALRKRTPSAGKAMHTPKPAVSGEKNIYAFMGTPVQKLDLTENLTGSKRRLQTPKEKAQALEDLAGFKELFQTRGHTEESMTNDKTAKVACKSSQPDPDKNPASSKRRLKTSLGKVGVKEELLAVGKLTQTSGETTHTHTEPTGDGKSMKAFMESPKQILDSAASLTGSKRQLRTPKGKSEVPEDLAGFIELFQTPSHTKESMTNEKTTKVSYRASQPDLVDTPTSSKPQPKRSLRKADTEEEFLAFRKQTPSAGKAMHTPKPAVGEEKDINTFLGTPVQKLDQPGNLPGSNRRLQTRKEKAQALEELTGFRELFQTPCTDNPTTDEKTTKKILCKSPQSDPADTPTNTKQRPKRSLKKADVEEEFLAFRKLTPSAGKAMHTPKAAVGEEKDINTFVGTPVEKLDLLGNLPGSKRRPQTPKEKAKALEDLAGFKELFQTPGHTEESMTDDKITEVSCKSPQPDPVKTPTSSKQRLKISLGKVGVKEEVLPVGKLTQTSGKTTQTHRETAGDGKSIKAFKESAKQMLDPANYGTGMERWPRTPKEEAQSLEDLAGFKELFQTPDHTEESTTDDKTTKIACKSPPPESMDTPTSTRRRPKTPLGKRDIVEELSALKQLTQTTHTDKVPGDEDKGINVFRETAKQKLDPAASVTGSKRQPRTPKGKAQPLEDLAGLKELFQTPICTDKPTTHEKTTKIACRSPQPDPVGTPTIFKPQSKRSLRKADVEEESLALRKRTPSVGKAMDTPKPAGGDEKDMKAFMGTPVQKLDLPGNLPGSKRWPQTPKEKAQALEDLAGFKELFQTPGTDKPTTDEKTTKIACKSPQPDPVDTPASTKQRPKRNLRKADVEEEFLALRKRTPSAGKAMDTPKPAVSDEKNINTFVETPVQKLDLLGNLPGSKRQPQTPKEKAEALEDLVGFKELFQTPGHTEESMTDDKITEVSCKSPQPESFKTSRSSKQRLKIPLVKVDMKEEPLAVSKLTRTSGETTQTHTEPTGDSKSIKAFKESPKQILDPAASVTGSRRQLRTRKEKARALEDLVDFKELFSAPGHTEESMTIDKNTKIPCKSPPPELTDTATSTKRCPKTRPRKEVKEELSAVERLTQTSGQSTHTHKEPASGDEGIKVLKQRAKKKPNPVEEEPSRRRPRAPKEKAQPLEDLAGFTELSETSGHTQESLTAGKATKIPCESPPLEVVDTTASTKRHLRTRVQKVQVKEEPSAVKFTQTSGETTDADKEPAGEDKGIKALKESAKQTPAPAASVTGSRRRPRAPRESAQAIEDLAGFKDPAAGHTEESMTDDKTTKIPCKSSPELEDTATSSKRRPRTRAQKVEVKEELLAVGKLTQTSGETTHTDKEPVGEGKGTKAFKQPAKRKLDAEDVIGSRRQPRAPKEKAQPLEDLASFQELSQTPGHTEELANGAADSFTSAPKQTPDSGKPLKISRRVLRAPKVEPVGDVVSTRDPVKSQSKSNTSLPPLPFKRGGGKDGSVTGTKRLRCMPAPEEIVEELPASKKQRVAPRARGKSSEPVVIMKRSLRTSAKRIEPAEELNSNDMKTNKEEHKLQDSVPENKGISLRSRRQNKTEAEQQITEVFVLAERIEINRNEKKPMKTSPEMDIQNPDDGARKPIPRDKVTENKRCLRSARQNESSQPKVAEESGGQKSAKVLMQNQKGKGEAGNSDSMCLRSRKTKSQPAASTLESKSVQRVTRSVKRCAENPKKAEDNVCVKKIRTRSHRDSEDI
UniProt Q9ULD4: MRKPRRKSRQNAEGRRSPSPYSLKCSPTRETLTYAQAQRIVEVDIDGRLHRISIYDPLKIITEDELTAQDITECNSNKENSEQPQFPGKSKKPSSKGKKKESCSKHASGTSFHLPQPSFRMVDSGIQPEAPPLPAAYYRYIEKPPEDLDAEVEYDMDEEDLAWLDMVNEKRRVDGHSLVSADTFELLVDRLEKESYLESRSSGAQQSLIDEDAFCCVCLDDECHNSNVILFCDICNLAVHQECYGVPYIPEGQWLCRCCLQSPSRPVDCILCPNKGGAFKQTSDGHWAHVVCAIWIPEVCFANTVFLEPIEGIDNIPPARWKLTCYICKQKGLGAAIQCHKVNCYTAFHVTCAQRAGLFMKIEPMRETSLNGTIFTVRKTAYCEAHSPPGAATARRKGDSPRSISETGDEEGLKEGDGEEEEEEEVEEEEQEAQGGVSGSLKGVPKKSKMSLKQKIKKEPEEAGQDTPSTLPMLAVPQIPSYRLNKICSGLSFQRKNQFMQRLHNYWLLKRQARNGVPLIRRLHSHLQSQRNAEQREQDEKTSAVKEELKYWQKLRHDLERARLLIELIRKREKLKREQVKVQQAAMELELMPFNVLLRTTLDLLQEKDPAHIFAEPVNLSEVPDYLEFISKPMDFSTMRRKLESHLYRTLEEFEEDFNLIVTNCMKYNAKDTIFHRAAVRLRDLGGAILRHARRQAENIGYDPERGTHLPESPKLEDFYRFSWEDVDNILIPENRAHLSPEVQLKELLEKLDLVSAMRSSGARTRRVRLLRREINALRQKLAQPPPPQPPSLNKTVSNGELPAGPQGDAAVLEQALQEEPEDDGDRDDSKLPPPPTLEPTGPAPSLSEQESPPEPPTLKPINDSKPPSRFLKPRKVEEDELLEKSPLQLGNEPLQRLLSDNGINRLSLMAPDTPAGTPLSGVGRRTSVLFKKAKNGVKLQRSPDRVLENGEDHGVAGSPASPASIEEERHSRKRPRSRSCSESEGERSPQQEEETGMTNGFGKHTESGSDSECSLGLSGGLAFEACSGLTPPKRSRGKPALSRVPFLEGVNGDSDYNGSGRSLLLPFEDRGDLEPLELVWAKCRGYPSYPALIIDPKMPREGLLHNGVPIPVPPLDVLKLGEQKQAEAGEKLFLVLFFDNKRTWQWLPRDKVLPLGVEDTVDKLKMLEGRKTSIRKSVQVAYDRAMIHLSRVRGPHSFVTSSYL
UniProt Q13838: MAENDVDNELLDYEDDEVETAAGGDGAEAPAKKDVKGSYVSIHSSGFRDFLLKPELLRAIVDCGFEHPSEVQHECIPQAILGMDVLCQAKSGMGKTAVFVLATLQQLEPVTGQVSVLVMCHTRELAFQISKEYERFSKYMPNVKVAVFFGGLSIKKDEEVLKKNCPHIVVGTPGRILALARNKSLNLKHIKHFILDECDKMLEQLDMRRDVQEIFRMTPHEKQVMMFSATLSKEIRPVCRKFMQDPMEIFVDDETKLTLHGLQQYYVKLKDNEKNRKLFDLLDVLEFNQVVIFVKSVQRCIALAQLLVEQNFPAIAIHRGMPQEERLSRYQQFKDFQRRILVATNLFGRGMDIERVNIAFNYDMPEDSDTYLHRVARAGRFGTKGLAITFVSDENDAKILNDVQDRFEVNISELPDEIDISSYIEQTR

First the molecules themselves.
B1: histone deubiquitinase MYSM1 (enzyme, UniProt Q5VVJ2 1-828)
chain: MAAEEADVDIEGDVVAAAGAQPGSGENTASVLQKDHYLDSSWRTENGLIPWTLDNTISEENRAVIEKMLLEEEYYLSKKSQPEKVWLDQKEDDKKYMKSLQKTAKIMVHSPTKPASYSVKWTIEEKELFEQGLAKFGRRWTKISKLIGSRTVLQVKSYARQYFKNKVKCGLDKETPNQKTGHNLQVKNEDKGTKAWTPSCLRGRADPNLNAVKIEKLSDDEEVDITDEVDELSSQTPQKNSSSDLLLDFPNSKMHETNQGEFITSDSQEALFSKSSRGCLQNEKQDETLSSSEITLWTEKQSNGDKKSIELNDQKFNELIKNCNKHDGRGIIVDARQLPSPEPCEIQKNLNDNEMLFHSCQMVEESHEEEELKPPEQEIEIDRNIIQEEEKQAIPEFFEGRQAKTPERYLKIRNYILDQWEICKPKYLNKTSVRPGLKNCGDVNCIGRIHTYLELIGAINFGCEQAVYNRPQTVDKVRIRDRKDAVEAYQLAQRLQSMRTRRRRVRDPWGNWCDAKDLEGQTFEHLSAEELAKRREEEKGRPVKSLKVPRPTKSSFDPFQLIPCNFFSEEKQEPFQVKVASEALLIMDLHAHVSMAEVIGLLGGRYSEVDKVVEVCAAEPCNSLSTGLQCEMDPVSQTQASETLAVRGFSVIGWYHSHPAFDPNPSLRDIDTQAKYQSYFSRGGAKFIGMIVSPYNRNNPLPYSQITCLVISEEISPDGSYRLPYKFEVQQMLEEPQWGLVFEKTRWIIEKYRLSHSSVPMDKIFRRDSDLTCLQKLLECMRKTLSKVTNCFMAEEFLTEIENLFLSNYKSNQENGVTEENCTKELLM
B2: non-receptor serine/threonine protein kinase MAP3K12 (enzyme, UniProt Q12852 1-859)
chain: MACLHETRTPSPSFGGFVSTLSEASMRKLDPDTSDCTPEKDLTPTHVLQLHEQDAGGPGGAAGSPESRASRVRADEVRLQCQSGSGFLEGLFGCLRPVWTMIGKAYSTEHKQQQEDLWEVPFEEILDLQWVGSGAQGAVFLGRFHGEEVAVKKVRDLKETDIKHLRKLKHPNIITFKGVCTQAPCYCILMEFCAQGQLYEVLRAGRPVTPSLLVDWSMGIAGGMNYLHLHKIIHRDLKSPNMLITYDDVVKISDFGTSKELSDKSTKMSFAGTVAWMAPEVIRNEPVSEKVDIWSFGVVLWELLTGEIPYKDVDSSAIIWGVGSNSLHLPVPSSCPDGFKILLRQCWNSKPRNRPSFRQILLHLDIASADVLSTPQETYFKSQAEWREEVKLHFEKIKSEGTCLHRLEEELVMRRREELRHALDIREHYERKLERANNLYMELNALMLQLELKERELLRREQALERRCPGLLKPHPSRGLLHGNTMEKLIKKRNVPQKLSPHSKRPDILKTESLLPKLDAALSGVGLPGCPKGPPSPGRSRRGKTRHRKASAKGSCGDLPGLRTAVPPHEPGGPGSPGGLGGGPSAWEACPPALRGLHHDLLLRKMSSSSPDLLSAALGSRGRGATGGAGDPGSPPPARGDTPPSEGSAPGSTSPDSPGGAKGEPPPPVGPGEGVGLLGTGREGTSGRGGSRAGSQHLTPAALLYRAAVTRSQKRGISSEEEEGEVDSEVELTSSQRWPQSLNMRQSLSTFSSENPSDGEEGTASEPSPSGTPEVGSTNTDERPDERSDDMCSQGSEIPLDPPPSEVIPGPEPSSLPIPHQELLRERGPPNSEDSDCDSTELDNSNSVDALRPPASLPP
B3: SART3 (protein, UniProt Q15020 1-963)
chain: MATAAETSASEPEAESKAGPKADGEEDEVKAARTRRKVLSRAVAAATYKTMGPAWDQQEEGVSESDGDEYAMASSAESSPGEYEWEYDEEEEKNQLEIERLEEQLSINVYDYNCHVDLIRLLRLEGELTKVRMARQKMSEIFPLTEELWLEWLHDEISMAQDGLDREHVYDLFEKAVKDYICPNIWLEYGQYSVGGIGQKGGLEKVRSVFERALSSVGLHMTKGLALWEAYREFESAIVEAARLEKVHSLFRRQLAIPLYDMEATFAEYEEWSEDPIPESVIQNYNKALQQLEKYKPYEEALLQAEAPRLAEYQAYIDFEMKIGDPARIQLIFERALVENCLVPDLWIRYSQYLDRQLKVKDLVLSVHNRAIRNCPWTVALWSRYLLAMERHGVDHQVISVTFEKALNAGFIQATDYVEIWQAYLDYLRRRVDFKQDSSKELEELRAAFTRALEYLKQEVEERFNESGDPSCVIMQNWARIEARLCNNMQKARELWDSIMTRGNAKYANMWLEYYNLERAHGDTQHCRKALHRAVQCTSDYPEHVCEVLLTMERTEGSLEDWDIAVQKTETRLARVNEQRMKAAEKEAALVQQEEEKAEQRKRARAEKKALKKKKKIRGPEKRGADEDDEKEWGDDEEEQPSKRRRVENSIPAAGETQNVEVAAGPAGKCAAVDVEPPSKQKEKAASLKRDMPKVLHDSSKDSITVFVSNLPYSMQEPDTKLRPLFEACGEVVQIRPIFSNRGDFRGYCYVEFKEEKSALQALEMDRKSVEGRPMFVSPCVDKSKNPDFKVFRYSTSLEKHKLFISGLPFSCTKEELEEICKAHGTVKDLRLVTNRAGKPKGLAYVEYENESQASQAVMKMDGMTIKENIIKVAISNPPQRKVPEKPETRKAPGGPMLLPQTYGARGKGRTQLSLLPRALQRPSAAAPQAENGPAAAPAVAAPAATEAPKMSNADFAKLFLRK
B4: ISY1 (protein, UniProt Q9ULR0 1-285)
chain: MARNAEKAMTALARFRQAQLEEGKVKERRPFLASECTELPKAEKWRRQIIGEISKKVAQIQNAGLGEFRIRDLNDEINKLLREKGHWEVRIKELGGPDYGKVGPKMLDHEGKEVPGNRGYKYFGAAKDLPGVRELFEKEPLPPPRKTRAELMKAIDFEYYGYLDEDDGVIVPLEQEYEKKLRAELVEKWKAEREARLARGEKEEEEEEEEEINIYAVTEEESDEEGSQEKGGDDSQQKFIAHVPVPSQQEIEEALVRRKKMELLQKYASETLQAQSEEARRLLGY
B5: RRP44 (protein, UniProt Q9Y2L1 1-958)
chain: MLKSKTFLKKTRAGGVMKIVREHYLRDDIGCGAPGCAACGGAHEGPALEPQPQDPASSVCPQPHYLLPDTNVLLHQIDVLEDPAIRNVIVLQTVLQEVRNRSAPVYKRIRDVTNNQEKHFYTFTNEHHRETYVEQEQGENANDRNDRAIRVAAKWYNEHLKKMSADNQLQVIFITNDRRNKEKAIEEGIPAFTCEEYVKSLTANPELIDRLACLSEEGNEIESGKIIFSEHLPLSKLQQGIKSGTYLQGTFRASRENYLEATVWIHGDNEENKEIILQGLKHLNRAVHEDIVAVELLPKSQWVAPSSVVLHDEGQNEEDVEKEEETERMLKTAVSEKMLKPTGRVVGIIKRNWRPYCGMLSKSDIKESRRHLFTPADKRIPRIRIETRQASTLEGRRIIVAIDGWPRNSRYPNGHFVRNLGDVGEKETETEVLLLEHDVPHQPFSQAVLSFLPKMPWSITEKDMKNREDLRHLCICSVDPPGCTDIDDALHCRELENGNLEVGVHIADVSHFIRPGNALDQESARRGTTVYLCEKRIDMVPELLSSNLCSLKCDVDRLAFSCIWEMNHNAEILKTKFTKSVINSKASLTYAEAQLRIDSANMNDDITTSLRGLNKLAKILKKRRIEKGALTLSSPEVRFHMDSETHDPIDLQTKELRETNSMVEEFMLLANISVAKKIHEEFSEHALLRKHPAPPPSNYEILVKAARSRNLEIKTDTAKSLAESLDQAESPTFPYLNTLLRILATRCMMQAVYFCSGMDNDFHHYGLASPIYTHFTSPIRRYADVIVHRLLAVAIGADCTYPELTDKHKLADICKNLNFRHKMAQYAQRASVAFHTQLFFKSKGIVSEEAYILFVRKNAIVVLIPKYGLEGTVFFEEKDKPNPQLIYDDEIPSLKIEDTVFHVFDKVKVKIMLDSSNLQHQKIRMSLVEPQIPGISIPTDTSNMDLNGPKKKKMKLGK

These are yes or no findings as the source states them, for the method shown. In cells and extracts the contact can be indirect. These calls come from enrichment with a bait or labelling near it, and not all partners need be listed. For some assays here: Tags and fused reporters may be left off the sequences shown.

In the first assay the target is His6-tagged PTBP2 (human) (UniProt Q9UKA9). Description: affinity purification with mass spectrometry; 48 ug His6-PTBP incubated in 200 ul splicing reaction (2.2 mM MgCl2, 0.4 mM ATP, 20 mM creatine phosphate, HeLa nuclear extract) at 30°C for 90 min; captured on HisPur Ni-NTA magnetic resin overnight at 4°C, washed (150 mM NaCl, 30 mM imidazole), eluted with 300 mM imidazole; LC-MS/MS; proteins of the Buffer DG and HeLa only controls and common contaminants removed; only the target purified.
On to UBE2H (from UniProt P62256 1-183), for which the binding result is listed as “binds”.

On to BAZ2A (from UniProt Q9UIF9 1-1905), for which the binding entry is recorded as “binds”. For HPCA (from UniProt P84074 1-193), the binding result is listed as “binds”. On the same count and under the same terms, under ASH2 (from UniProt Q9UBL3 1-628) stands “binds”; under “telomerase reverse transcriptase TERT (from UniProt O14746 1-1132) (enzyme)”, “binds”. Still for that read-out and setting: under “lysine demethylase RSBN1 (from UniProt Q5VWQ0 1-802) (enzyme)” stands “binds”.

With BSN (from UniProt Q9UPA5 1-3926), the binding result was “binds”.

For DPOE3 (from UniProt Q9NRF9 1-147), the binding entry is recorded as “binds”. Same read-out and setting: next, GATA4 (from UniProt P43694 1-442): “binds”; ITSN1 (from UniProt Q15811 1-1721): “binds”; “chromodomain helicase CHD8 (from UniProt Q9HCK8 1-2581)”: “binds”. As to KI67 (from UniProt P46013 1-3256), the binding entry was “binds”. On the same count and under the same terms, under BRPF3 (from UniProt Q9ULD4 1-1205) stands “binds”.

As for DX39B (from UniProt Q13838 1-428), the binding result is given as “binds”. Still for that read-out and setting: next, “nuclear receptor coactivator 3 (from UniProt Q9Y6Q9 1-1424)”: “binds”; B1: “binds”. With B2, the binding result was “binds”.

The target in a further assay is His6-tagged PTBP1 (human). The assay is described as above.
On to B3, for which the binding result is listed as “binds”. On to B4, for which the binding result is on record as “binds”. As for B5, the binding result was “binds”.
